# PubChem BioAssay AID1224827 | NIAID, 2016
# Assay: 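Confirm genes whose knock-down changes LPS-driven TNF promoter activity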 (follow-up of hits)
# Cell system: RAW264.7 G9 mouse macrophage reporter clone
# Knock-down reagent: single siRNA against mouse genes, 100 nM siRNA
# Time to read-out: siRNA for 2 days, then LPS about 16 h
# Challenge: bacterial lipopolysaccharide (LPS), 10 ng/ml, cells fixed after overnight (about 16 h) stimulation
# Detection: 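Imaged nuclear TNF reporter intensity, background removed, scaled per plate and to non-targeting control wells, as z-scores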
# Scale: TNF reporter z-score, mean and TNF reporter z-score: higher = stronger Tnf promoter reporter signal; gene median z, three same-vendor siRNAs: higher = stronger Tnf reporter signal for the gene
# Hit rule: 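Active siRNA: replicate-mean z-score of 2 or more, or -2 or less; no calls for control wells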
# This is one part, drawn at random, of about 3,800 deposited reagents. In the full data, about 2,200 (57%) were called active. 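Active means a strong reporter change in either direction; calls are per siRNA, not per gene; qiagen siRNAs gave weaker effects.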 Unmarked entries are inactive. Reagents against one gene are numbered here.
gene,reagent no.,"TNF reporter z-score, mean","gene median z, three same-vendor siRNAs","TNF reporter z-score, repeat 1","TNF reporter z-score, repeat 2"
Ca9 (GeneID 230099),1,-0.551,-2.18,-1.17,0.0695
Ca9 (GeneID 230099),2,-2.75 (active),-2.18,-3.1,-2.4
Ca9 (GeneID 230099),3,-3.45 (active),-2.18,-4.93,-1.97
Ca9 (GeneID 230099),4,1.74,-1.57,2.89,0.601
Ca9 (GeneID 230099),5,-1.57,-1.57,-0.961,-2.17
Ca9 (GeneID 230099),6,-2.66 (active),-1.57,-2.87,-2.44
Dennd1c (GeneID 70785),1,4.72 (active),-3.12,4.74,4.69
Dennd1c (GeneID 70785),2,-3.12 (active),-3.12,-3.02,-3.21
Dennd1c (GeneID 70785),3,-3.5 (active),-3.12,-3.74,-3.26
Dennd1c (GeneID 70785),4,1.71,-0.965,3.84,-0.42
Dennd1c (GeneID 70785),5,-0.774,-0.965,0.173,-1.72
Dennd1c (GeneID 70785),6,-2.72 (active),-0.965,-3.94,-1.51
Cpeb1 (GeneID 12877),1,-2.08 (active),-3.67,-2.99,-1.18
Cpeb1 (GeneID 12877),2,-3.89 (active),-3.67,-4.43,-3.35
Cpeb1 (GeneID 12877),3,-4.44 (active),-3.67,-3.99,-4.89
Cpeb1 (GeneID 12877),4,2.82 (active),-0.611,5.28,0.36
Cpeb1 (GeneID 12877),5,0.84,-0.611,3.26,-1.58
Cpeb1 (GeneID 12877),6,-3.72 (active),-0.611,-2.84,-4.61
Bach1 (GeneID 12013),1,0.87,-1.25,1.07,0.666
Bach1 (GeneID 12013),2,-1.25,-1.25,-1.43,-1.07
Bach1 (GeneID 12013),3,-5.05 (active),-1.25,-5.36,-4.75
Bach1 (GeneID 12013),4,2.44 (active),0.84,4.1,0.789
Bach1 (GeneID 12013),5,1.86,0.84,2.83,0.892
Bach1 (GeneID 12013),6,-3.65 (active),0.84,-3.51,-3.79
Adipoq (GeneID 11450),1,-2.48 (active),-3.31,-3.84,-1.11
Adipoq (GeneID 11450),2,-2.69 (active),-3.31,-2.78,-2.6
Adipoq (GeneID 11450),3,-4.88 (active),-3.31,-5.48,-4.27
Adipoq (GeneID 11450),4,6.82 (active),-0.405,11.2,2.48
Adipoq (GeneID 11450),5,-0.405,-0.405,0.0878,-0.897
Adipoq (GeneID 11450),6,-2.94 (active),-0.405,-3.42,-2.45
Polr1c (GeneID 20016),1,-3.51 (active),-4.25,-4,-3.03
Polr1c (GeneID 20016),2,-4.5 (active),-4.25,-5.09,-3.91
Polr1c (GeneID 20016),3,-4.56 (active),-4.25,-4.61,-4.5
Polr1c (GeneID 20016),4,4.73 (active),0.457,8.58,0.866
Polr1c (GeneID 20016),5,1.03,0.457,2.96,-0.9
Polr1c (GeneID 20016),6,-0.501,0.457,0.0472,-1.05
Mpzl3 (GeneID 319742),1,-3.33 (active),-4.09,-2.6,-4.06
Mpzl3 (GeneID 319742),2,-3.54 (active),-4.09,-2.98,-4.11
Mpzl3 (GeneID 319742),3,-6.05 (active),-4.09,-6.16,-5.94
Mpzl3 (GeneID 319742),4,4.61 (active),1.24,6.98,2.24
Mpzl3 (GeneID 319742),5,1.83,1.24,3.42,0.236
Mpzl3 (GeneID 319742),6,-3.07 (active),1.24,-3.06,-3.08
Tmem139 (GeneID 109218),1,1.56,-1.46,2.18,0.926
Tmem139 (GeneID 109218),2,-1.46,-1.46,-1.64,-1.27
Tmem139 (GeneID 109218),3,-4.34 (active),-1.46,-4.42,-4.27
Tmem139 (GeneID 109218),4,4.67 (active),0.635,8.24,1.11
Tmem139 (GeneID 109218),5,1.44,0.635,2.71,0.165
Tmem139 (GeneID 109218),6,-1.14,0.635,-0.86,-1.41
Trim67 (GeneID 330863),1,1.56,-1.83,1.64,1.48
Trim67 (GeneID 330863),2,-1.83,-1.83,-2.99,-0.674
Trim67 (GeneID 330863),3,-3.84 (active),-1.83,-3.73,-3.95
Trim67 (GeneID 330863),4,0.27,-0.785,1.24,-0.697
Trim67 (GeneID 330863),5,0.436,-0.785,2.57,-1.7
Trim67 (GeneID 330863),6,-1.22,-0.785,-0.872,-1.56
Gcm2 (GeneID 107889),1,-1.62,-3.14,-2.15,-1.08
Gcm2 (GeneID 107889),2,-3.14 (active),-3.14,-3.02,-3.27
Gcm2 (GeneID 107889),3,-3.61 (active),-3.14,-3.46,-3.76
Gcm2 (GeneID 107889),4,5.26 (active),1.55,8.33,2.19
Gcm2 (GeneID 107889),5,1.04,1.55,2.22,-0.136
Gcm2 (GeneID 107889),6,0.363,1.55,0.91,-0.183
Cyp2c65 (GeneID 72303),1,-3.5 (active),-3.67,-3.71,-3.29
Cyp2c65 (GeneID 72303),2,-4.15 (active),-3.67,-3.49,-4.82
Cyp2c65 (GeneID 72303),3,-3.96 (active),-3.67,-4.29,-3.63
Cyp2c65 (GeneID 72303),4,2.49 (active),1.16,3.73,1.26
Cyp2c65 (GeneID 72303),5,2.5 (active),1.16,4.98,0.0234
Cyp2c65 (GeneID 72303),6,-0.146,1.16,1.06,-1.35
Galnt6 (GeneID 207839),1,-3.19 (active),-4.26,-3.26,-3.12
Galnt6 (GeneID 207839),2,-4.26 (active),-4.26,-4.11,-4.41
Galnt6 (GeneID 207839),3,-4.86 (active),-4.26,-5.03,-4.68
Galnt6 (GeneID 207839),4,2.48 (active),0.112,4.39,0.569
Galnt6 (GeneID 207839),5,0.69,0.112,1.72,-0.345
Galnt6 (GeneID 207839),6,-3.48 (active),0.112,-3.67,-3.29
Prickle3 (GeneID 54630),1,-2.3 (active),-3.43,-2.07,-2.53
Prickle3 (GeneID 54630),2,-3.43 (active),-3.43,-3.76,-3.09
Prickle3 (GeneID 54630),3,-5.41 (active),-3.43,-5.02,-5.8
Prickle3 (GeneID 54630),4,4.3 (active),2.68,7.69,0.916
Prickle3 (GeneID 54630),5,3.53 (active),2.68,5.61,1.46
Prickle3 (GeneID 54630),6,1.97,2.68,3.91,0.0349

Single entries from the list.
Prickle3 (GeneID 54630) #1, TNF reporter z-score, mean: -2.3 (active)
For “TNF reporter z-score, repeat 1”, Polr1c (GeneID 20016) #4 has 8.58 (active)
Bach1 (GeneID 12013) #4, TNF reporter z-score, repeat 1: 4.1 (active)
Under “TNF reporter z-score, mean”, Tmem139 (GeneID 109218) #4 is entered as 4.67 (active)
Galnt6 (GeneID 207839) #4, gene median z, three same-vendor siRNAs → 0.112 (active)
Galnt6 (GeneID 207839) #5, TNF reporter z-score, repeat 1: 1.72
